Publication PMC6509187
Results are given in words; binding and its absence hold for the method and conditions named. In cells and extracts the contact can be indirect. These calls come from enrichment with a bait or labelling near it, and not all partners need be listed.

Target: T1, DNAX activation protein of 12 kDa (DAP12) (pig (endogenous in PAMs)) (UniProt Q9TU45)
T1 sequence: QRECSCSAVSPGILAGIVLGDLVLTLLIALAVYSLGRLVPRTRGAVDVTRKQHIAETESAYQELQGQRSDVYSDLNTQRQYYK
Test: affinity purification with mass spectrometry; PAMs infected with PRRSV (MOI = 1) for 1 h; IP with anti-DAP12 MAb, isotype IgG as control; SDS-PAGE, silver staining, discrepant bands analysed by MALDI-TOF MS

- binding: binds
Substance: nonmuscle myosin heavy chain IIA (NMHC-IIA) (pig (endogenous in PAMs))
